Results as given in PubChem BioAssay AID270 (DTP/NCI, 2004).
The list does not hold the whole screen: it is rich in T/C values a quarter to a half above the control, in often repeated tests (any T/C) and in doses without a T/C. Other doses and runs of a compound stand elsewhere. T/C gives the treated animals as a percentage of the vehicle group. Some doses have a count of surviving animals in place of a T/C: the source holds a T/C of zero for them, seemingly a mark for toxic or unscored doses. Some survivor counts are full or nearly so, which does not show that the dose was tolerated: survival well below the control is almost never listed, so the zero probably covers shortened survival too. Survivors were counted at the toxicity check, usually on the fifth day, unless a day is given; later deaths do not show. Schedules are NCI's codes, read here as Q, the interval in days (D) or hours (H), X, the number of doses. Some doses were run more than once; their values stand side by side, smallest first. For survival time, the PubChem record calls one and a half times the control and up active, and a quarter to a half above the control has no call in these data; cut-offs in other NCI protocols can differ.

System: BDF1 mice, s.c. Lewis lung carcinoma, T/C %
Assay: NCI In Vivo Anticancer Drug Screen. Data for tumor model Lewis Lung Carcinoma (subcutaneous) in B6D2F1 (BDF1) mice
Details: T/C endpoint: median survival time, higher T/C = longer survival
Outline: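 Transplanted tumors grown in mice; compound vs vehicle dosing; endpoint survival or tumor size; ratio T/C.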

SMILES: CC1CCC(NC(=O)N(CCCl)N=O)CC1 (configuration not stated)
- T/C (dose: 1.0 mg/kg/injection, schedule: Q01DX009 (ip), vehicle: saline + alcohol, evaluated on day 45): 112 % of control
- T/C (dose: 1.0 mg/kg/injection, schedule: Q01DX009 (ip), vehicle: saline + alcohol, evaluated on day 60): 96 and 109 % of control
- T/C (dose: 1.0 mg/kg/injection, schedule: Q01DX009 (ip), vehicle: saline + alcohol, evaluated on day 70): 92 % of control
- survivor count (dose: 2.0 mg/kg/injection, schedule: Q01DX001 (ip), vehicle: Klucel (hydroxypropylcellulose) (HPC)): 10 of 10
- T/C (dose: 2.0 mg/kg/injection, schedule: Q01DX009 (ip), vehicle: saline + alcohol, evaluated on day 45): 112 % of control
- T/C (dose: 2.0 mg/kg/injection, schedule: Q01DX009 (ip), vehicle: saline + alcohol, evaluated on day 60): 102 and 114 % of control
- survivor count (dose: 2.0 mg/kg/injection, schedule: Q01DX009 (ip), vehicle: saline + alcohol): 10 of 10
- T/C (dose: 2.0 mg/kg/injection, schedule: Q02DX009 (ip), vehicle: saline + alcohol): 129 % of control
- survivor count (dose: 4.0 mg/kg/injection, schedule: Q01DX001 (ip), vehicle: saline + alcohol): 10 of 10
- survivor count (dose: 4.0 mg/kg/injection, schedule: Q01DX009 (ip), vehicle: Klucel (hydroxypropylcellulose) (HPC)): 10 of 10
- T/C (dose: 4.0 mg/kg/injection, schedule: Q01DX009 (ip), vehicle: saline + alcohol, evaluated on day 45): 104 % of control
- T/C (dose: 4.0 mg/kg/injection, schedule: Q01DX009 (ip), vehicle: saline + alcohol, evaluated on day 60): 126 and 133 % of control
- survivor count (dose: 4.0 mg/kg/injection, schedule: Q01DX009 (ip), vehicle: saline + alcohol): 10 of 10
- T/C (dose: 4.0 mg/kg/injection, schedule: Q01DX009 (ip), vehicle: saline with Tween-80): 135 % of control
- T/C (dose: 5.0 mg/kg/injection, schedule: Q04DX003 (ip), vehicle: other): 136 % of control
- T/C (dose: 7.5 mg/kg/injection, schedule: Q01DX001 (ip), vehicle: Klucel (hydroxypropylcellulose) (HPC)): 127 % of control
- T/C (dose: 8.0 mg/kg/injection, schedule: Q01DX009 (ip), vehicle: saline + alcohol, evaluated on day 45): 137 % of control
- T/C (dose: 8.0 mg/kg/injection, schedule: Q01DX009 (ip), vehicle: saline + alcohol, evaluated on day 60): 100 and 133 % of control
- T/C (dose: 8.0 mg/kg/injection, schedule: Q01DX009 (ip), vehicle: saline + alcohol, evaluated on day 70): 99 % of control
- T/C (dose: 8.0 mg/kg/injection, schedule: Q01DX009 (ip), vehicle: saline with Tween-80): 137 and 149 % of control
- T/C (dose: 8.0 mg/kg/injection, schedule: Q02DX009 (ip), vehicle: saline + alcohol): 125 % of control
- T/C (dose: 8.6 mg/kg/injection, schedule: Q04DX004 (ip), vehicle: saline with Tween-80): 138 % of control
- T/C (dose: 10.0 mg/kg/injection, schedule: Q01DX005 (ip), vehicle: saline with Tween-80): 141 % of control
- T/C (dose: 15.0 mg/kg/injection, schedule: Q01DX001 (ip), vehicle: Klucel (hydroxypropylcellulose) (HPC)): 131 % of control
- T/C (dose: 15.0 mg/kg/injection, schedule: Q01DX001 (ip), vehicle: saline with Tween-80): 132 % of control
- survivor count (dose: 16.0 mg/kg/injection, schedule: Q01DX001 (ip), vehicle: saline + alcohol): 10 of 10
- T/C (dose: 16.0 mg/kg/injection, schedule: Q01DX001 (ip), vehicle: saline with Tween-80): 140 % of control
- survivor count (dose: 16.0 mg/kg/injection, schedule: Q01DX005 (ip), vehicle: saline + alcohol): 9 of 10
- survivor count (dose: 16.0 mg/kg/injection, schedule: Q01DX009 (ip), vehicle: Klucel (hydroxypropylcellulose) (HPC)): 10 of 10
- survivor count (dose: 16.0 mg/kg/injection, schedule: Q01DX009 (ip), vehicle: saline with Tween-80): 9 of 10 and 10 of 10
- T/C (dose: 18.0 mg/kg/injection, schedule: Q01DX001 (ip), vehicle: Klucel (hydroxypropylcellulose) (HPC)): 141 % of control
- T/C (dose: 20.0 mg/kg/injection, schedule: Q01DX001 (ip), vehicle: Klucel (hydroxypropylcellulose) (HPC)): 143 % of control
- T/C (dose: 20.0 mg/kg/injection, schedule: Q01DX001 (ip), vehicle: saline with Tween-80): 143 % of control
- survivor count (dose: 20.0 mg/kg/injection, schedule: Q04DX003 (ip), vehicle: other): 2 of 10 on day 57
- T/C (dose: 20.0 mg/kg/injection, schedule: Q04DX004 (ip), vehicle: saline with Tween-80, evaluated on day 13): 174 % of control
- T/C (dose: 20.0 mg/kg/injection, schedule: Q04DX004 (ip), vehicle: saline with Tween-80, evaluated on day 77): 205 % of control
- T/C (dose: 20.0 mg/kg/injection, schedule: Q04DX004 (ip), vehicle: saline with Tween-80, evaluated on day 84): 345 % of control
- T/C (dose: 20.0 mg/kg/injection, schedule: Q04DX004 (ip), vehicle: saline with Tween-80, evaluated on day 101): 217 % of control
- T/C (dose: 21.0 mg/kg/injection, schedule: Q07DX002 (ip), vehicle: saline with Tween-80, evaluated on day 80): 266 % of control
- T/C (dose: 21.0 mg/kg/injection, schedule: Q07DX002 (ip), vehicle: saline with Tween-80, evaluated on day 84): 381 % of control
- T/C (dose: 21.0 mg/kg/injection, schedule: Q07DX002 (ip), vehicle: saline with Tween-80, evaluated on day 101): 413 % of control
- T/C (dose: 21.0 mg/kg/injection, schedule: Q07DX002 (ip), vehicle: saline with Tween-80, evaluated on day 119): 150 % of control
- T/C (dose: 22.0 mg/kg/injection, schedule: Q01DX005 (ip), vehicle: saline with Tween-80): 145 % of control
- T/C (dose: 24.0 mg/kg/injection, schedule: Q01DX001 (ip), vehicle: gum acacia, evaluated on day 15): 187 % of control
- T/C (dose: 24.0 mg/kg/injection, schedule: Q01DX001 (ip), vehicle: gum acacia, evaluated on day 46): 156 % of control
- T/C (dose: 24.0 mg/kg/injection, schedule: Q01DX001 (ip), vehicle: gum acacia, evaluated on day 77): 216 % of control
- T/C (dose: 24.0 mg/kg/injection, schedule: Q01DX001 (ip), vehicle: gum acacia, evaluated on day 90): 182 % of control
- T/C (dose: 24.0 mg/kg/injection, schedule: Q01DX001 (ip), vehicle: gum acacia, evaluated on day 136): 106 % of control
- T/C (dose: 24.0 mg/kg/injection, schedule: Q01DX001 (ip), vehicle: saline with Tween-80, evaluated on day 12): 119 and 124 % of control
- T/C (dose: 24.0 mg/kg/injection, schedule: Q01DX001 (ip), vehicle: saline with Tween-80, evaluated on day 52): 164 % of control
- T/C (dose: 24.0 mg/kg/injection, schedule: Q01DX001 (ip), vehicle: saline with Tween-80, evaluated on day 54): 97 % of control
- T/C (dose: 24.0 mg/kg/injection, schedule: Q01DX001 (ip), vehicle: saline with Tween-80, evaluated on day 90): 165 % of control
- T/C (dose: 24.0 mg/kg/injection, schedule: Q01DX001 (ip), vehicle: saline with Tween-80, evaluated on day 92): 117 % of control
- T/C (dose: 24.0 mg/kg/injection, schedule: Q08DX002 (ip), vehicle: saline + alcohol): 125 % of control
- T/C (dose: 24.0 mg/kg/injection, schedule: Q12DX002 (ip), vehicle: gum acacia): 145 % of control
- T/C (dose: 27.0 mg/kg/injection, schedule: Q07DX002 (ip), vehicle: saline with Tween-80, evaluated on day 80): 194 % of control
- T/C (dose: 27.0 mg/kg/injection, schedule: Q07DX002 (ip), vehicle: saline with Tween-80, evaluated on day 84): 381 % of control
